Hit rate of the full screen: of about 140,000 compounds, about 4,300 (3.1%) were called active. The shares of active, inactive and inconclusive entries below differ from those in the screen.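 The calls were made as follows: active = readout at or below -70, meaning at least 70% loss of cells showing the perinucleolar compartment, a nuclear body marking cancer cells; inconclusive = readout between -30 and a set limit; inactive = the rest.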
assay: High Content Assay for Compounds that inhibit the Assembly of the Perinucleolar Compartment; details: PC3M PTB-GFP, PNC prevalence imaging, 16 h; at 10 µM; active compounds read low;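 also: plate controls were DMSO wells for no effect and camptothecin positive control wells for full effect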
Procedure, shortened: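 PC3M cells stably expressing PTB-GFP, 750–1000 cells/well, treated 16 h at 37 °C with compound (23 nl of library stock), in duplicate. After paraformaldehyde fixation and Hoechst stain, imaged at 20x; PNC prevalence scored by image analysis.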

Row | SMILES | activity change (PNC), negative = inhibition
1 | CCS(=O)(=O)c1ccc2oc(Nc3ccccc3C)nc2c1 | inconclusive: -51.7%
2 | Cc1cccc(NC(=O)COC(=O)c2cccc3c2C(=O)c2ccccc2C3=O)c1C | inconclusive: -43.9%
3 | Nc1c(C(=O)Nc2ccc(S(=O)(=O)N3CCCC3)cc2)sc2nc3ccc(OC(F)(F)F)cc3cc12 | inactive: -19.1%
4 | COc1ccnc(Oc2ccccc2)c1C(=O)N/C=N/OCc1ccc(F)cc1Cl | inconclusive: -49%
5 | Cn1cccc1P(=O)(c1cccn1C)c1cccn1C | inconclusive: -35.1%
6 | O=C1CCC/C(=N\NC(=O)c2ccc(COc3cccc4cccnc34)cc2)C1 | inactive: -28.9%
7 | COc1ccc(NC(=O)C2CCN(c3nnnn3-c3ccccc3)CC2)cc1 | inconclusive: -34.9%
8 | O=[N+]([O-])c1cc(-c2ccc(/C=N/c3nc4ccccn4c3-c3ccco3)o2)ccc1Cl | inactive: 61.2%
9 | Cc1nc2ncnn2c(C)c1CCC(=O)NC(C)CCc1ccco1 (centres undefined) | inconclusive: -46.4%
10 | Cc1ccc2nsnc2c1S(=O)(=O)N(Cc1ccco1)Cc1cc2ccc(C)c(C)c2[nH]c1=O | active: -81.8%
11 | O=c1c2c3c(sc2nc2n1CCCCC2)CCCC3 | inactive: -16.5%
12 | O=C(c1cc2ccccc2oc1=O)N(Cc1cccs1)Cc1cccs1 | inactive: -20.9%
13 | O=C(C1CCN(S(=O)(=O)c2cccc3cccnc23)CC1)N1CCc2ccccc21 | inactive: 33.8%
14 | COc1ccc(Cc2nc(-c3ccc(NC(=O)c4cccnc4)cc3)no2)cc1 | active: -126%
15 | COc1ccc(OC)c(NC(=O)NCc2ccc(F)cc2)c1 | inconclusive: -42.6%
16 | CCOc1cc(C(=O)OCC(=O)c2c(C)[nH]c3ccccc23)ccc1OCC(=O)N1CCOCC1 | inconclusive: -46.3%
17 | CCOc1ccc(-c2nc(=S)[nH][nH]2)cc1 | inactive: 5.07%
18 | CCC(C)NC(=O)CSc1nnc(-c2ccncc2)n1-c1ccc(OC)cc1 (centres undefined) | inconclusive: -31.9%
19 | CCS(=O)(=O)N1CCN(C(=O)c2cccs2)CC1 | inconclusive: -40.9%
20 | CN(C1CCCCC1)S(=O)(=O)c1ccc(NC(=O)CCC(=O)O)cc1 | inactive: -26.5%
21 | CCOc1ccc(C2C(C(=O)O)c3ccccc3C(=O)N2CCN2CCOCC2)cc1 (centres undefined) | inconclusive: -41%
22 | C(=N\n1cnnc1)/c1cccc(Oc2ccccc2)c1 | inactive: 29.9%
23 | O=C(Nc1cc(C(F)(F)F)ccc1-n1cnc2ccccc21)c1ccccc1 | inactive: 2.85%
24 | O=C(c1cc2nc(-c3ccco3)cc(C(F)(F)F)n2n1)N1CCCc2ccccc21 | inconclusive: -35.6%

Looked up above.
For activity change (PNC), negative = inhibition, COc1ccc(OC)c(NC(=O)NCc2ccc(F)cc2)c1 is listed with inconclusive: -42.6%
For activity change (PNC), negative = inhibition, O=c1c2c3c(sc2nc2n1CCCCC2)CCCC3 is listed with inactive: -16.5%

— PubChem BioAssay AID2417 (National Center for Advancing Translational Sciences (NCATS), 2010)
